According to the supplement of paper PMC11237882:
The other results are listed elsewhere or left out. Values are worked out from sequencing counts and are noisy.

T1: Homer1 EVH1 domain
T1 chain: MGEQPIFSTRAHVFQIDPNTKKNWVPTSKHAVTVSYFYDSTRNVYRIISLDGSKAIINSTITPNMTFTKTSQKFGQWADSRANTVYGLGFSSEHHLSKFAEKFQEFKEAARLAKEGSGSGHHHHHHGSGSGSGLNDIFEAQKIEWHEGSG


Biological target: T1, Homer1 EVH1 domain
Assay: enrichment score (AUC of log2 frequency ratio across FACS sorting rounds) (log2 AUC); higher = stronger enrichment for Homer1 EVH1 binding

Binder	enrichment score
VMLNMATEILKAFGLKGIISKTEGAGINKLIMAKKK	-0.754
ILQEKITRGKYGEGAKQETFTFALTLVFIQCVINAV	-0.595
PIKTTMLLKIQQNIGVIAAFTVAVLAAGISFHYFSD	2.8
SVLYGWSFFLAPAGIFFSLLAGLLFLVVDRHIQIHH	3.46
RGGIFGLLGCLQAIGLFASMAAVLLGGARASRLLFH	-0.662
GTGLTPLHLSDDGEGGTFHFHDPPPPYTAYKYPDIG	0.356
TPIAARFGDLITLAILAWISQGLYSCLETYYYISPL	4.37
EKENQDKLVKFMIRIGVFSILYLVPLLVVIGCYFYE	1.45
GYISLVQCILQVFFFIALASSEVAILTVMSYDRYAA	0.595
EKIKELEAEIQQLRTQAQVLSSSSGIPGPPAAPPLP	-0.648
NIFIALLVILISYTFIFITILKMHSASVYQKPLSTS	-0.854
PSLRQQLFSYAILGFALSEAMGLFCLMVAFLILFAM	2.31
DPPSVFNMPEADLKRIFWVLSLPIITLLFLTTPDCR	3.7
FSKLDYSGIALLIMGSFVPWLYYSFYCSPQPRLIYL	4.68
LMVITGVALCCWRHSKASASFSEQKNLMRIPGSSDG	2.15
SSLRWAPGPLHVLQVAMAFGLALATLVQSVGHISGA	3.77
RYHHYCTRSQLAWNSAVSLVLFVWLSSAFWAALPLP	-1.76
APAFPPPLLLPPPTGDLRLQPPPPLPFGLGGFPPTP	6.27
PFGEYFCQVLGALTVFYPSIALWLLAFISADRYMAI	1.01
SCIVCLFVGLYYNVIIGWSIFYFFKSFQYPLPWSEC	1.15
SYGALKGDGILIVVNTVGAALQTLYILAYLHYCPRK	2.21
ENGWLKAVQVLMVLSLILYCLSFILFMFQLYTMRRG	3.97

Binder	enrichment score
YLTILPEGLFMLSLCLVPTFAVSCLLLGLDLRSGLH	3.64
FASDRDTYLWIGYLCAILLFTAALIQSFCLQCYFQL	2.72
QVIIRERYRDNDSDLALGMLAGAATGMALGSLFWVF	0.915
MELCRSLALLGGSLGLMFCLIALSTDFWFEAVGPTH	1.62
PEVARFGYFSAALLAPHLIGEFLTLVLLGIVQNPNI	1.42
FGVIATIAFLMINAVSNGQVRGDSYSEGCLGQTGAH	2.7
FINPTSFSLHVLSKINIFYYSVLLLTLYTVLGPWFF	2.11
SNKQKPVMGPPLRGRGKGRGRIRSEDEEDLGNARPS	-2.02
TLAGALFLHQRRKYRSNKGESPVEPAEPCRYSCPRE	1.26
MSSSETLPSGNLFGLLIIFYSAIIGGKILQLIRIPI	1.67
LTEHFFHASTQGILTINILRGQILIALCFVILLATT	2.97
MKYVFYLGVLAGTFFFADSSVQKEDPAPYLVYLKSH	0.601
EGQLPLLFNTLNSHSSPFTAVLLLVTLGSLAIILTS	1.32
KVKPAEAETAGAIMAFFLCLGLALGAVFSFLFRAIV	3.42
MDKLDANVSSEEGFGSVEKVVLLTFLSTVILMAILG	2.98
SALTQKGLKTVFDEAIIAILTPKKHTVKKKNRIKMY	-3.12
YLGNLIALANLVSICVFLVLDADVLPAERDDFILGI	0.873
GSIDSGPPGLLRGAIPSSIWVVSIIMFRLILLILSV	2.42
DNRGDIGLLLGMIVFAVMLSILSLIGIFNRSFRTGI	3.44
QKRITKKNPKKAEKLERKKVYRAEYINFLENLKILE	-0.377
TTNQISLGSLRSIVKSLLLVPNGALKKSLTAKQVQA	-3.22
QVTACLIYINMYLSTIFLAFVSIDRCLQLTHSCKIY	1.02
